Values quoted from earlier work as cited in patent publication US20160324856A1, “USE OF SGC STIMULATORS FOR THE TREATMENT OF NEUROMUSCULAR DISORDERS” (IRONWOOD PHARMACEUTICALS, INC., priority 2014, published 2016).
At least one structure is not confirmed: it was looked up by name or label, or the drawing left a doubt.

Test system: dystrophin-deficient zebrafish

CN1CC(=O)N2[C@H](c3ccc4c(c3)OCO4)c3[nH]c4ccccc4c3C[C@@H]2C1=O [tadalafil]
dystrophic skeletal muscle and survival: rescue dystrophic skeletal muscle and prolong survival
